Over roughly 33,000 sequences, “E-score (-0.5 to 0.5)” has its median near -0.016; the highest 2% begin near 0.3. This is one part of the list.
The sequences below were run against T1, Yer184c (UniProt P39961) (assay: PBM E-score (8-mer binding enrichment) (E-score (-0.5 to 0.5)); higher = stronger / more preferred TF binding). Details: protein concentration: 100 nM; construct: GST-full length.
T1 sequence: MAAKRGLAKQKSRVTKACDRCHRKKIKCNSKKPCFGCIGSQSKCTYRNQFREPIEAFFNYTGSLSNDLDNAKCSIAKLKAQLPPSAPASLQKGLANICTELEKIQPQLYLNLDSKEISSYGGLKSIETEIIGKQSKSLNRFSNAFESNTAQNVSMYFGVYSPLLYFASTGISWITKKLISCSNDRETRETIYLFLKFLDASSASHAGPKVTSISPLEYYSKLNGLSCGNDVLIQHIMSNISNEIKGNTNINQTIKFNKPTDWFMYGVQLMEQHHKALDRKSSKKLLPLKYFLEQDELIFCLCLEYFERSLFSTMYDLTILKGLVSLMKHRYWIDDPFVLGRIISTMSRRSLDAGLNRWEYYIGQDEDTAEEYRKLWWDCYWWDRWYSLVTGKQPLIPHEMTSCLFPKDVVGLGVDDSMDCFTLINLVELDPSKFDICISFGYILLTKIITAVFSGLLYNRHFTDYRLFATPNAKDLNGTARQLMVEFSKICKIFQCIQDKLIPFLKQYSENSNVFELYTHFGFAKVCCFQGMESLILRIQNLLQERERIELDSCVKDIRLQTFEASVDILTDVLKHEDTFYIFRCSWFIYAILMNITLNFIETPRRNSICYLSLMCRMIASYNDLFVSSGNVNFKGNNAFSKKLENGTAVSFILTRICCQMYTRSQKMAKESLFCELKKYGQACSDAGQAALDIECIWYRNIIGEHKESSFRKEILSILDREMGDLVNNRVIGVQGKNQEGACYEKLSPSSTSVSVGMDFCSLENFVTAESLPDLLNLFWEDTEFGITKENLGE
In short: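 Yeast transcription factors carrying a GST tag, as full-length proteins or DNA-binding domains, were produced by PURExpress in vitro transcription/translation. About 100-200 nM protein was applied to universal all-10-mer Agilent arrays, double-stranded by primer extension on fresh or once-stripped slides. Bound protein was detected with fluorescent anti-GST, and scans were normalised with masliner. The Universal PBM Analysis Suite gave each ungapped eight-base word, pooled with its reverse complement, an E-score, a modified Wilcoxon-Mann-Whitney statistic.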

Sequence | PBM E-score
CGGATTGC | 0.147
CACTTCAC | 0.0219
AGCGCAAC | 0.02
GGGTACCA | -0.302
ATCGCCTA | -0.112
ACAGAGTA | 0.0994
ATCCAGAA | 0.192
GAGAAATA | 0.201
AATAAGGC | -0.0802
ATTAAGAA | 0.183
CGGTCGAA | 0.148
GCATTAGC | -0.0819
GGACCTCC | -0.128
ATTCTCCC | 0.0626
CAGTCTGA | -0.134
GAGCCGGC | 0.406
TCATGAAA | -0.0304
AGTTTATG | 0.0601
CACCTCTC | -0.422
CTAAGATA | -0.0939
CAGTTCGG | 0.278
ATGTGTCG | -0.0246
CGTGAGCC | -0.181
GTTTTCGA | 0.0208
CATTGGTC | -0.157

Sequence | PBM E-score
CACAAATC | 0.0459
GGGGTGGA | -0.253
AACGAAAG | 0.0872
AAAGTTCC | -0.0249
TCTACAAA | 0.0103
ACTTGAGA | -0.122
AATGTAGT | -0.00611
AATCTTAT | 0.135
AACATGTA | 0.125
ACTTTCCG | 0.283
AGCAATAC | -0.0448
ATCAATTA | 0.289
ACCTTGGG | -0.0755
AGGTGGCG | -0.23
TGTGTGAA | -0.00139
AAGACCTA | 0.0922
ACAGCGCC | 0.0141
ACAGGTCA | -0.198
CTCGGGTA | 0.17
CGCCCGTC | 0.0863
AATACGGG | -0.0849
GTGTACTA | 3e-05
GTCGGAAA | 0.318
GCGCCGCC | 0.122
ATTCTACG | 0.0509

Sequence | PBM E-score
GTAAGGTA | 0.103
GATGCGTA | -0.0625
CAGTTCTC | -0.0246
AGAGGAAT | -0.0733
CAAGCTTG | -0.131
ATGCCCTG | -0.147
AGACTTTC | 0.0167
CTATCTCA | 0.0431
AAACCCCC | -0.354
ACATAATC | 0.0975
ATGAGCCG | 0.066
GAGTTCCC | -0.0116
AGAGTATA | -0.169
ACCTTCTG | -0.0235
AATATTCA | 0.037
CAACAGTA | 0.0627
AAGTCCCA | -0.275
CTGAGTGA | 0.24
AGTAGATC | 0.0008
AAAAAGCG | 0.14
ACCGACAA | 0.13
GGGGCTCA | -0.278
CCCTATCC | -0.194
CACTTACA | -0.0257
AAAGAAAT | 0.231

Sequence | PBM E-score
GCTGTCGA | -0.0787
ATTCCCCG | 0.117
CATTTGAG | 0.0174
CACTGCTG | -0.206
AATTTCAT | 0.0864
CGGGACCA | -0.098
AAAGAGCG | 0.00323
AACAAGCC | -0.04
GCCCCACA | -0.265
GCGGGTCC | -0.0615
GCTATTCC | -0.132
CGTCCTTA | -0.0106
AATATAGG | 0.111
TCGAACAA | 0.218
CGTGGGAC | -0.0911
CTGGCTCA | -0.00502
ACATCTGG | -0.0303
GAAGGAGC | -0.31
CTCCACGA | -0.0321
GAATTGAC | 0.00201
CCAGGGCG | -0.185
ATGCCTTG | -0.0435
CATATTCG | 0.0661
GCGTATAA | 0.0897
GTAGACAA | 0.0722

Reformatted as comma-separated lines: part of the list above.
Sequence,PBM E-score
AAAGAGCG,0.00323
AACAAGCC,-0.04
GCCCCACA,-0.265
GCGGGTCC,-0.0615
GCTATTCC,-0.132
CGTCCTTA,-0.0106

Looked up one by one from the entries so far, 2 records:
Sequence | PBM E-score
GCTGTCGA | -0.0787
CTGGCTCA | -0.00502

(next part)

Sequence | PBM E-score
ATCTATAG | -0.0342
ACATCAAG | -0.0605
CTGATCCA | -0.176
CGCGCTCC | 0.0945
AACTCCGG | 0.424
GAGTGCTA | -0.138
AGTTTGTC | 0.0484
ATCGCTAC | -0.0453
ACGGTATG | 0.0268
AGTTACCG | 0.292
TGAACCAA | 0.18
AAATCAAA | 0.13
ACGTACTA | -0.0775
CGATTCTC | 0.00611
GAGGGGAA | -0.102
GACCCGCA | -0.112
CCTACTCC | -0.129
GCGCTCCA | -0.16
CGGACGAA | 0.353
ACGGGCCC | 0.0185
GGACTTGA | -0.175
ATTCTTGG | 0.232
ATTAAACC | 0.113
AGACCCCT | -0.37
ATCAATGA | 0.2

Sequence | PBM E-score
GGCCCACC | -0.215
ATTGATGG | -0.00116
CGACGGAG | 0.115
CACCGGTG | 0.0474
CCTACGAA | -0.115
CCGTTCAC | -0.211
GAAGGTCA | -0.19
ACCTCCTC | -0.135
CGCATCGC | -0.097
CCCTTCTC | -0.349
GAATCTCC | 0.0252
CTTGTGTA | 0.0286
CCGAAAGA | 0.215
ATCCTCCG | 0.118
GACAATAA | 0.131
CTAGTAAC | -0.0898
CGACACTC | 0.058
ATCGTCGC | -0.0233
CAGCGCGG | 0.00233
CACAGCTG | -0.204
ATTGTACC | 0.0761
CTCACGGC | 0.0169
GGTACCGA | 0.169
TACGCCGA | 0.237
AAATAGGG | -0.0569

Sequence | PBM E-score
GGCACTTA | -0.112
CAGTTAGG | -0.149
AGTCTTAG | -0.125
GAAAAACC | 0.204
AAATTTAC | 0.244
CTCGGTGC | -0.0357
CGCACTGC | -0.116
ACGCAGGG | -0.0548
AAGCGGGG | -0.312
CGTTTAAG | 0.0519
AGCTCAGC | -0.234
AACCATCG | 0.185
AACTGTAC | -0.0839
GTGAATCA | -0.0703
AAATGTGT | 0.115
AGACGTCT | -0.214
TCAATGCA | -0.0376
CTGATGTA | -0.00146
AGCGAATA | 0.066
ACCTTGAG | -0.0404
GGGTAAAC | 0.0809
GAACAGTA | 0.246
